From PubChem BioAssay AID493014 (National Center for Advancing Translational Sciences (NCATS), 2011)
Hit rate of the full screen: of about 340,000 compounds, about 170 (0.05%) were called active. Inconclusive results, whose numbers are uncertain, are shown with a selection of clear calls. The call rests on the fitted dose curve; in most records, active means well fitted inhibition curve with a large enough effect in the signal ratio, with a control signal flat (not every such curve was filed as active); inconclusive means small, poorly fitted or top-dose-only effect, or effect the other way, or a change in a side signal; inactive means flat fitted curve, though single readings scatter; the % refers to the signal ratio. Where the call is inconclusive, the potency comes from a doubtful curve fit.

experiment: qHTS Assay to Find Inhibitors of Chronic Active B-Cell Receptor Signaling; conditions: ABC-DLBCL IkBa-CBG/CBR reporter, luminescence ratio (green luciferase fused to IkBa over red control in TMD8 lymphoma cells), 4 h; activity change, negative = inhibition: at 46.1 µM (top of the series) unless noted;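 on activity change, negative = inhibition: plate controls were basal doxycycline-induced cells for no effect and cells given 10 µM MG132 for full effect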
Procedure, shortened: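 Cell line TMD8 (human ABC DLBCL), stably expressing tet-inducible CBG68-IkBa fusion and CBR; IMDM/0.5% FBS; cpd up to 46 uM; dox induction, 4 h, 37C/5% CO2; dual luminescence; green/red ratio; MG132 control.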
Potency means the concentration at half of the fitted maximal effect.

Question: With Cc1onc(-c2ccccc2)c1C(=O)NNC(=S)NC(=O)c1ccc(F)cc1 as the compound, how does the Potency read?
Answer: inconclusive: 29.1 µM [falling, single point]

Question: Which Potency does the source give for COc1ccccc1CN1C[C@@H]2C[C@@H](c3ccc(C)c(C)c3)N3CCC[C@@]23C1=O here?
Answer: inconclusive: 12.6 µM [falling, partial curve, poor fit]

Question: For CN(c1ccccc1)c1nc(N)c([N+](=O)[O-])c(N2CCCCC2)n1, which activity change, negative = inhibition is on record?
Answer: inconclusive: 5.71%

Question: For O=C(Nc1cccc(O)c1)C1CC(c2cccc(Br)c2)=NO1 (stereo unspecified), which Potency is on record?
Answer: inconclusive: 17.8 µM [falling, single point]

Question: For O=C(C(=O)N1CCN(c2ccc(F)cc2)CC1)c1c[nH]c2ccccc12, which Potency is on record?
Answer: inconclusive: 17.8 µM [falling, partial curve]

Question: Which “activity change, negative = inhibition” value does the source give for O/N=C(/c1ccc(F)cc1)C1CC1c1c(F)cccc1Cl (stereo unspecified) here?
Answer: inactive: -7.19%

Question: Which activity change, negative = inhibition does the source give for CCn1c(SCc2ccccc2F)nnc1-c1ccncc1 here?
Answer: inconclusive: 0.337%

Question: Which activity change, negative = inhibition does the source give for CC(C)(C)c1nc(N)nc(=O)[nH]1 here?
Answer: inconclusive: -7.74%

Question: With Cc1cccc2[nH]c3c(N4CC=C(c5ccc(F)cc5)CC4)ncnc3c12 as the compound, how does the activity change, negative = inhibition read?
Answer: inconclusive: 3.84%

Question: With CCCN1CCCc2cc(CN(CCCN3CCOCC3)C(=O)Nc3ccc(Cl)c(Cl)c3)ccc21 as the compound, how does the “activity change, negative = inhibition” value read?
Answer: inactive: 5.48%

Question: For Cc1cc(N2CCOCC2)ccc1/C=C1\SC(=O)N(C(C)C)C1=O, which activity change, negative = inhibition is on record?
Answer: inconclusive: 9.97%

Question: With Cc1ccc(NC(=S)NNC(=O)c2ccccc2O)c(C)c1 as the compound, how does the Potency read?
Answer: inconclusive: 35.5 µM [rising, single point]

Question: With CC(=O)C[C@H](O)CC(=O)[C@H]1OC(=O)CCCCCc2ccccc21 as the compound, how does the activity change, negative = inhibition read?
Answer: inconclusive: 12.9%

Question: With O=C(COC(=O)CC12CC3CC(CC(C3)C1)C2)Nc1ncc(Cl)cc1Cl as the compound, how does the “activity change, negative = inhibition” value read?
Answer: inactive: 22.5%

Question: With CC(=O)Nc1ccc(Cc2ccc3[nH]c(=O)cc(C)c3c2)cc1 as the compound, how does the activity change, negative = inhibition read?
Answer: inconclusive: -2.29%

Question: With CC(=O)Nc1ccc(-c2nnc(SCC(=O)NCc3ccco3)n2C)cc1 as the compound, how does the Potency read?
Answer: inconclusive: 6.51 µM [falling, partial curve, poor fit]

Question: Which activity change, negative = inhibition does the source give for COCC(=O)N1CCC(Oc2ccc(C(=O)NCCCC3CCCC3)cc2)CC1 here?
Answer: inconclusive: -8.27%

Question: Which activity change, negative = inhibition does the source give for COCCN(C(=O)Nc1ccccc1)C(C)c1cccnc1 (stereo unspecified) here?
Answer: inconclusive: 14.2%

Question: Which Potency does the source give for CCOC(=O)C1(CCOc2ccccc2)CCN(Cc2ccc(C)o2)CC1 here?
Answer: inconclusive: 3.16 µM [falling, single point]

Question: For Cc1ccc2c(c1)C(c1ccncc1)=NNC(c1ccccc1)=N2, which Potency is on record?
Answer: inconclusive: 20 µM [falling, single point]

Question: Which “activity change, negative = inhibition” value does the source give for CN1CCN(c2ccccc2NC(=O)c2ccc([N+](=O)[O-])o2)CC1 here?
Answer: inactive: -3.57%

Question: With O=C(Nc1nc(-c2ccccc2Cl)cs1)c1cccnc1 as the compound, how does the activity change, negative = inhibition read?
Answer: inconclusive: 13.4%

Question: With O=C(O)CN1C(=O)CSC1=S as the compound, how does the activity change, negative = inhibition read?
Answer: inconclusive: 12.7%

Question: With COc1ccc(/C=C(/C#N)C(=O)Nc2cc(C)ccc2C)cc1C(=O)O as the compound, how does the activity change, negative = inhibition read?
Answer: inconclusive: -6.57%

Question: With Cc1ccc(C(=O)O)cc1NC(=S)NC(=O)c1ccc([N+](=O)[O-])cc1Cl as the compound, how does the Potency read?
Answer: inconclusive: 29.1 µM [falling, single point]

Question: Which activity change, negative = inhibition does the source give for CC(C)COC(=O)C1[C@H]2C(=O)N(Cc3cccs3)C[C@]23C=C[C@H]1O3 (stereo partly specified) here?
Answer: inconclusive: 8.13%

Question: Which “activity change, negative = inhibition” value does the source give for COc1ccc(/C=N/n2cnc3c([nH]c4ccccc43)c2=O)cc1CO here?
Answer: inactive: 0.843%

Question: For Cc1c(/C=N/Nc2nc3ccccc3[nH]2)c2ccccc2n1C, which Potency is on record?
Answer: inconclusive: 22.4 µM [falling, single point]

Question: With CP(=O)(COC(=O)c1ccccc1)COC(=O)c1ccccc1 as the compound, how does the activity change, negative = inhibition read?
Answer: inconclusive: -8.5%

Question: For Cn1sc(NC(=O)c2ccccc2Cl)nc1=O, which “activity change, negative = inhibition” value is on record?
Answer: inactive: 3.27%

Question: Which activity change, negative = inhibition does the source give for CC(C)N1CCc2c(sc(NC(=O)c3ccc4ccccc4c3)c2C(N)=O)C1 here?
Answer: inconclusive: -2.83%

Question: With COCCn1cnnc1SCC(=O)Nc1sc2c(c1C#N)CCC2 as the compound, how does the activity change, negative = inhibition read?
Answer: inconclusive: -0.845%

Question: For O=C(NC1CC(=O)N(c2ccc(Cl)cc2)C1)c1cc2ccccc2o1 (stereo unspecified), which activity change, negative = inhibition is on record?
Answer: inconclusive: 20.1%

Question: Which Potency does the source give for Cc1ccc(-c2ccc(C3C(C#N)=C(N)Oc4n[nH]c(C)c43)o2)cc1 (stereo unspecified) here?
Answer: inconclusive: 12.6 µM [falling, partial curve]

Question: For CC#CC(=O)N1CCC(Oc2cccc(C(=O)NCc3ccccn3)c2)CC1, which Potency is on record?
Answer: inconclusive: 35.5 µM [falling, single point]

Question: For CC(CN1CCCCC1)OC(=O)c1cccc(F)c1 (stereo unspecified), which activity change, negative = inhibition is on record?
Answer: inconclusive: 13.6%

Question: Which “activity change, negative = inhibition” value does the source give for CNS(=O)(=O)c1cc(C(=O)O)ccc1OC here?
Answer: inactive: 1.8%

Question: Which activity change, negative = inhibition does the source give for O=C(CCCOc1ccccc1)N1CCN(S(=O)(=O)c2cccs2)CC1 here?
Answer: inconclusive: -27.3%

Question: Which “activity change, negative = inhibition” value does the source give for Cc1ccc(-c2nc(S(=O)(=O)c3ccc(C)cc3)c(N(C)C)o2)cc1 here?
Answer: inactive: 3.58%

Question: With COc1cc(OC)c(OC)cc1/C=N/n1c(COc2ccccc2)n[nH]c1=S as the compound, how does the activity change, negative = inhibition read?
Answer: inconclusive: 1.97%

Question: Which activity change, negative = inhibition does the source give for O=C(NCCCn1ccnc1)Nc1cccc(Cl)c1 here?
Answer: inconclusive: 5.34%

Question: Which Potency does the source give for Cc1ccccc1-c1nc(-c2ccccn2)no1 here?
Answer: inconclusive: 17.8 µM [falling, partial curve]

Question: For O=C(Nc1ccc2ccccc2c1)N1CCCN(CCOc2ccccc2)CC1, which “activity change, negative = inhibition” value is on record?
Answer: inactive: 1.13%

Question: For COc1cc(-c2n[nH]c(=S)n2-c2ccc(Br)cc2)cc(OC)c1OC, which activity change, negative = inhibition is on record?
Answer: inconclusive: 0.221%

Question: For O=C(NCC(O)c1ccccc1)c1cccs1 (stereo unspecified), which Potency is on record?
Answer: inconclusive: 25.1 µM [falling, single point]

Question: For Cc1c(C(=O)N2CCN(C)CC2)oc2c1C(=O)CC(C)(C)C2, which activity change, negative = inhibition is on record?
Answer: inconclusive: 4.14%

Question: For O=C(Nc1nc2ccccc2[nH]1)c1ccc(F)cc1, which Potency is on record?
Answer: inconclusive: 31.6 µM [rising, single point]

Question: Which activity change, negative = inhibition does the source give for CCN(c1ccccc1)S(=O)(=O)c1ccc(NC(=O)c2nc(S(C)(=O)=O)ncc2Cl)cc1 here?
Answer: inconclusive: 28.1%

Question: Which Potency does the source give for CC(NC(=O)c1cc2ccccc2o1)c1cccs1 (stereo unspecified) here?
Answer: inconclusive: 25.9 µM [falling, single point]

Question: Which activity change, negative = inhibition does the source give for COc1ccc2c(CCNC(=O)CN3C(=O)c4ccccc4C3=O)c[nH]c2c1 here?
Answer: inconclusive: 4.97%

Question: For S=C(NCc1ccccn1)Nc1ccc(Cl)cc1, which Potency is on record?
Answer: inconclusive: 35.5 µM [falling, single point]

Question: With NS(=O)(=O)c1ccc(CCNC(=O)/C=C/c2ccc([N+](=O)[O-])cc2)cc1 as the compound, how does the “activity change, negative = inhibition” value read?
Answer: inactive: 1.46%

Question: For CSc1nnc(NC(=O)c2nc(S(=O)(=O)Cc3cccc(C)c3)ncc2Cl)s1, which activity change, negative = inhibition is on record?
Answer: inconclusive: 14.9%

Question: Which Potency does the source give for CCOC(=O)c1cnc(-n2nc(C)cc2C)nc1N(CC)CC here?
Answer: inconclusive: 20.6 µM [falling, partial curve, poor fit]

Question: With C=C(C)c1cccc(C(C)(C)NC(=O)N2CCCC(C(N)=O)C2)c1 (stereo unspecified) as the compound, how does the activity change, negative = inhibition read?
Answer: inconclusive: 14%

Question: With Cc1ccc(-c2nc(NC(=O)CSc3nnc4scc(-c5ccccc5)n34)ns2)cc1 as the compound, how does the “activity change, negative = inhibition” value read?
Answer: inactive: -4.85%

Question: For Cc1ccc(NC(=O)C2C3C=CC(O3)C2C(=O)O)cc1C (stereo unspecified), which activity change, negative = inhibition is on record?
Answer: inconclusive: 6.78%

Question: With Cn1c(/C=N/NC(=O)c2ccccc2)nc2ccccc21 as the compound, how does the Potency read?
Answer: inconclusive: 35.5 µM [rising, single point]

Question: Which “activity change, negative = inhibition” value does the source give for COc1ccc(Cn2c(-c3ccc(OC)c(O)c3)nc3ccccc32)cc1O here?
Answer: inactive: -3.2%

Question: Which Potency does the source give for CCC1(CC)NC(=O)N(CC(=O)NCc2ccc3c(c2)OCO3)C1=O here?
Answer: inconclusive: 0.13 µM [falling, full curve, poor fit]

Question: With C[C@H](NC(=O)OC(C)(C)C)C(=O)N/N=C/C1=Cc2ccccc2OC1 as the compound, how does the “activity change, negative = inhibition” value read?
Answer: inactive: -7.85%

Question: Which activity change, negative = inhibition does the source give for NNC(=O)CNC(c1ccccc1)c1cc(Br)ccc1NC(=O)c1ccccc1Br (stereo unspecified) here?
Answer: inconclusive: -5.12%

Question: Which “activity change, negative = inhibition” value does the source give for CC(=O)Nc1ccc(OCC(O)Cn2cnc3ccccc32)cc1 (stereo unspecified) here?
Answer: inactive: -8.12%

Question: For COc1ccc(NCC(=O)N/N=C/C2CCCCC2)cc1, which “activity change, negative = inhibition” value is on record?
Answer: inactive: -2.39%

Question: For CC(C)=CC(=O)OCC(=O)Nc1ccc(Cl)cn1, which Potency is on record?
Answer: inconclusive: 0.461 µM [rising, full curve, poor fit]

Question: Which Potency does the source give for Cc1ccc(-c2cc(N)n(-c3ccccc3)n2)cc1 here?
Answer: inconclusive: 20 µM [falling, single point]

Question: For COC(=O)c1ccc(NC(=O)c2ccc3nc(C)sc3c2)cc1, which activity change, negative = inhibition is on record?
Answer: inconclusive: -28%

Question: With C=CCOc1ccc(CNn2c(C)n[nH]c2=S)cc1OC as the compound, how does the Potency read?
Answer: inconclusive: 0.631 µM [rising, partial curve, poor fit]

Question: For c1cncc(CNCc2ccco2)c1, which activity change, negative = inhibition is on record?
Answer: inconclusive: -1.91%

Question: Which activity change, negative = inhibition does the source give for C=CCOc1ccc(C2=NO[C@@H]3[C@@H]4C[C@@H]([C@H]5C(=O)N(C)C(=O)[C@@H]45)[C@H]23)cc1 here?
Answer: inconclusive: -7.07%

Question: Which Potency does the source give for CSc1nnc(-c2cc(Br)ccc2N=Cc2c(C)[nH]n(-c3ccccc3)c2=O)c(=O)[nH]1 here?
Answer: inconclusive: 12.6 µM [rising, partial curve, poor fit]

Question: With Cc1ccc2c(CC(=O)Nc3c(C)n(C)n(-c4ccccc4)c3=O)coc2c1 as the compound, how does the activity change, negative = inhibition read?
Answer: inconclusive: 19%

Question: With Cn1nnnc1SCc1ccccc1F as the compound, how does the activity change, negative = inhibition read?
Answer: inconclusive: 2.83%

Question: With C[C@H](NC(=O)c1nc[nH]c1C(=O)N1CCc2ccccc2C1)C(=O)OC(C)(C)C as the compound, how does the activity change, negative = inhibition read?
Answer: inconclusive: -0.981%

Question: For O=C1C(Cl)=C(Nc2ccccc2O)C(=O)N1CCc1ccccc1, which Potency is on record?
Answer: inconclusive: 23.1 µM [falling, partial curve]

Question: With COc1ccc(CNC(=O)C(C#N)c2nc3ccccc3nc2N2CCN(C)CC2)cc1 (stereo unspecified) as the compound, how does the “activity change, negative = inhibition” value read?
Answer: inactive: -6.15%

Question: With O=C(NCC(=O)N(c1cccnc1)C(C(=O)NC1CCCC1)c1ccc(F)cc1)c1ccco1 (stereo unspecified) as the compound, how does the activity change, negative = inhibition read?
Answer: inconclusive: 7.87%

Question: For COc1cccc(CNc2cc(CSc3ccc(Cl)cc3)nc(C)n2)c1, which activity change, negative = inhibition is on record?
Answer: inconclusive: -3.19%

Question: Which activity change, negative = inhibition does the source give for N#CCCN(Cc1cccnc1)C(=O)Nc1ccc(Cl)c(Cl)c1 here?
Answer: inconclusive: 11.9%

Question: With Clc1cccc(CN2CCC(Cc3ccccc3)CC2)c1 as the compound, how does the activity change, negative = inhibition read?
Answer: inconclusive: 11%

Question: With COc1cc2c(cc1OC)C(C)N(C(=O)c1cc(C)on1)CC2 (stereo unspecified) as the compound, how does the Potency read?
Answer: inconclusive: 2.82 µM [falling, full curve]
